This note sets out measurements from article PMC8432861.

These are yes or no findings as the source states them, for the method shown. In cells and extracts the contact can be indirect. Some entries that bind do so weakly or less than the wild type. For part of these data: Tags and fused reporters may be left off the sequences shown.

The target in assay [1] is T1, FLAG-Myc-tagged murine IRF7 K3R mutant (K398R, K400R, K406R) (murine) (UniProt P70434).
T1 sequence: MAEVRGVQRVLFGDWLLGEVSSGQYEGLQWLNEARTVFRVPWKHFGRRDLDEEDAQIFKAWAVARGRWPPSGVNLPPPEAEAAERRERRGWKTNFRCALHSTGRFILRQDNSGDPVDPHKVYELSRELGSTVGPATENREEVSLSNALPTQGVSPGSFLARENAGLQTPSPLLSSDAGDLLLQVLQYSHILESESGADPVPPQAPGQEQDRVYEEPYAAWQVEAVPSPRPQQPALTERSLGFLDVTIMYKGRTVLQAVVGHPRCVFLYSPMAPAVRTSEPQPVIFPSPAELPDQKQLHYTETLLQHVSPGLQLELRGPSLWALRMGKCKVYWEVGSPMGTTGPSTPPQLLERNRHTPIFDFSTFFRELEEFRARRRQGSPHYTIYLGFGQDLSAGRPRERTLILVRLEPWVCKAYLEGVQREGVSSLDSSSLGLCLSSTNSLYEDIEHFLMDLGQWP
Description: co-IP; HEK-293T transfected with expression vectors for 24 h, then infected with SeV for 6 h or left untreated; IP lysis buffer (10mM Tris-HCl, pH 7.5, 2mM EDTA, 1% NP40, 150mM NaCl); immunoblot.

Assay [2] has as its target T2, FLAG-Myc-tagged murine IRF7 WT (murine) (UniProt P70434).
T2 sequence: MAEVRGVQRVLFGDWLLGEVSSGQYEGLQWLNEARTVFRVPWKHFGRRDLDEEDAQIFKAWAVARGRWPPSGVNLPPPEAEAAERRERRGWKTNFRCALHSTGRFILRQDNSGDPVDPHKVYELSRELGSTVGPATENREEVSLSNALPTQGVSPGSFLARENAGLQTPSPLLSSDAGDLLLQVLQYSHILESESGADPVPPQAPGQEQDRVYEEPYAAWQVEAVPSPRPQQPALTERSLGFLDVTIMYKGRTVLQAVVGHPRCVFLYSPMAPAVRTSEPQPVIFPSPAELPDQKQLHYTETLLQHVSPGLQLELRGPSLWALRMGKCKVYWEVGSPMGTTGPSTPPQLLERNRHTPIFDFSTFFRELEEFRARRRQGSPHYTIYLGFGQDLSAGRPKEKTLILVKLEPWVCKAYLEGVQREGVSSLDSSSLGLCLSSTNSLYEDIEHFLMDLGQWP
Described as above.

Assay [3] deals with T3, endogenous IRF7 (Raw264.7) (mouse (endogenous in Raw264.7)) (UniProt P70434).
T3 sequence: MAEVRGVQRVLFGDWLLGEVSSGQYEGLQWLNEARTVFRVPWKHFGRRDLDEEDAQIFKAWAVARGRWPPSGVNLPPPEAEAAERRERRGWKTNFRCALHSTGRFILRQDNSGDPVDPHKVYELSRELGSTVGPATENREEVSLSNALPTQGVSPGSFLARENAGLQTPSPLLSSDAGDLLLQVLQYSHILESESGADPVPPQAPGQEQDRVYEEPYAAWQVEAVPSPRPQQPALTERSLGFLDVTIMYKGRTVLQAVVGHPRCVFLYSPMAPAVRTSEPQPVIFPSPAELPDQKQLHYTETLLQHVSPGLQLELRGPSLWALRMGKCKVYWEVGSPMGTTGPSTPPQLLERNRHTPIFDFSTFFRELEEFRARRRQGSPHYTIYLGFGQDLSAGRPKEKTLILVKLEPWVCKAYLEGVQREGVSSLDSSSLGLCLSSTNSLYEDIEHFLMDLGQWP
Description: co-IP; endogenous proteins in SeV-infected Raw264.7; IP with an anti-IRF7 antibody or an anti-Ubc12 antibody, control rabbit IgG; immunoblot. (In general: A western blot detects proteins with antibodies after separation by electrophoresis.)

B1: FLAG-tagged human IRF3 (protein, UniProt Q14653 1-427)
chain: MGTPKPRILPWLVSQLDLGQLEGVAWVNKSRTRFRIPWKHGLRQDAQQEDFGIFQAWAEATGAYVPGRDKPDLPTWKRNFRSALNRKEGLRLAEDRSKDPHDPHKIYEFVNSGVGDFSQPDTSPDTNGGGSTSDTQEDILDELLGNMVLAPLPDPGPPSLAVAPEPCPQPLRSPSLDNPTPFPNLGPSENPLKRLLVPGEEWEFEVTAFYRGRQVFQQTISCPEGLRLVGSEVGDRTLPGWPVTLPDPGMSLTDRGVMSYVRHVLSCLGGGLALWRAGQWLWAQRLGHCHTYWAVSEELLPNSGHGPDGEVPKDKEGGVFDLGPFIVDLITFTEGSGRSPRYALWFCVGESWPQDQPWTKRLVMVKVVPTCLRALVEMARVGGASSLENTVDLHISNSHPLSLTSDQYKAYLQDLVEGMDFQGPGES
With B1, the binding result in assay [1] and in assay [2] was “binds” in each case.

B2: endogenous Ubc12 (Raw264.7) (enzyme, UniProt P61082 1-183)
chain: MIKLFSLKQQKKEEESAGGTKGSSKKASAAQLRIQKDINELNLPKTCDISFSDPDDLLNFKLVICPDEGFYKSGKFVFSFKVGQGYPHDPPKVKCETMVYHPNIDLEGNVCLNILREDWKPVLTINSIIYGLQYLFLEPNPEDPLNKEAAEVLQNNRRLFEQNVQRSMRGGYIGSTYFERCLK
Take B2: the binding entry in assay [3] is “binds weakly”.
